Data on one molecule can be found in patent publication JP2001333780A.

Results are given in words; binding and its absence hold for the method and conditions named. Some entries that bind do so weakly or less than the wild type.

This assay deals with 上皮細胞増殖因子レセプター(EGFR) (UniProt P00533). The experiment in a line: competition ELISA with HRP-labelled B4G7 on formalin-fixed A431 cells. Background: An ELISA detects its analyte on a solid surface through an enzyme-linked reagent.

B1: マウス改変型(BB型) 一本鎖抗体 (scFv)
scFv: MGHHHHHHQVQLQQSGAELVRPGASVKLSCTASGFNIKDTLMHWVKQRPEQGLEWIGWIDPEDGNTKYVRKFQGKATITADTSSNTAYLQVSSLTSEDTAIYYCVRGGSYGNWAYWGQGTTVTVSSGGGGSGGGGSGGGGSDIELTQSPASLSASVGETVTITCRTSENIYSYFAWYQQKQGKSPHLLVYNAKTLAEGVPSRFSGSGSGTQFSLKINSLQPEDFGIYFCQHHYGSLHTFGGGTKLEIKHHHHHHGGGS
Take B1: the binding result is reported as “binds”.
